# Results taken from article PMC5996148.
# This is one part of the list.
# Legend:
# Assay in all cases: protein microarray (ProtoArray v5.0), streptavidin-Alexa Fluor 647
# Conditions in all cases: 3'-biotin; 20 mM Tris (pH 7.5), 5 mM MgCl2, 100 mM KCl, 0.1% Tween-20, A/T-rich and random oligonucleotide blockers; temperature not stated; high values mean tight binding
# [1] = system: Caspase recruitment domain-containing protein 14 (human)
# Cathepsin Z (human) = system: Cathepsin Z (human)
# [2] = system: Cbp/p300-interacting transactivator 1 (human)
# [3] = system: Cell division cycle 7-related protein kinase (human)
# [4] = system: Centromere protein Q (human)
# [5] = system: Ciliary neurotrophic factor (human)
# [6] = system: Coiled-coil domain-containing protein 115 (human)
# [7] = system: Coiled-coil domain-containing protein 28A (human)
# [8] = system: Coiled-coil domain-containing protein 6 (human)
# Cyclin-Y (human) = system: Cyclin-Y (human)
sequence,measurement,setting,value
GGGGACAGGGGTATGGGGAGGGG [G4-3 biotinylated (CtG)],binding signal,[1],-0.32 z-score
same,binding signal,Cathepsin Z (human),-0.315 z-score
same,binding signal,[2],-0.333 z-score
same,binding signal,[3],3.46 z-score
same,binding signal,[4],-0.35 z-score
same,binding signal,[5],-0.32 z-score
same,binding signal,[6],-0.336 z-score
same,binding signal,[7],8.15 z-score
same,binding signal,[8],-0.304 z-score
same,binding signal,Cyclin-Y (human),-0.329 z-score
